Test results taken from publication PMC8216813.
These are yes or no findings as the source states them, for the method shown. Binding seen in cells or lysates may run through a third protein. Some results given as binding are weak or reduced against the parent protein; the word gives no strength.

By UniProt entry, the sequences of proteins in these tests, tags left out.
UniProt P63208: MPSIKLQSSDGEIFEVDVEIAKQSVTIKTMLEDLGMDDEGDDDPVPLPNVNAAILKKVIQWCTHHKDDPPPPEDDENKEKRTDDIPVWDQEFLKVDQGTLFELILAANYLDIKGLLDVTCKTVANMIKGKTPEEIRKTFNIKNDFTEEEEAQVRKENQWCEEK
UniProt Q9NYY3: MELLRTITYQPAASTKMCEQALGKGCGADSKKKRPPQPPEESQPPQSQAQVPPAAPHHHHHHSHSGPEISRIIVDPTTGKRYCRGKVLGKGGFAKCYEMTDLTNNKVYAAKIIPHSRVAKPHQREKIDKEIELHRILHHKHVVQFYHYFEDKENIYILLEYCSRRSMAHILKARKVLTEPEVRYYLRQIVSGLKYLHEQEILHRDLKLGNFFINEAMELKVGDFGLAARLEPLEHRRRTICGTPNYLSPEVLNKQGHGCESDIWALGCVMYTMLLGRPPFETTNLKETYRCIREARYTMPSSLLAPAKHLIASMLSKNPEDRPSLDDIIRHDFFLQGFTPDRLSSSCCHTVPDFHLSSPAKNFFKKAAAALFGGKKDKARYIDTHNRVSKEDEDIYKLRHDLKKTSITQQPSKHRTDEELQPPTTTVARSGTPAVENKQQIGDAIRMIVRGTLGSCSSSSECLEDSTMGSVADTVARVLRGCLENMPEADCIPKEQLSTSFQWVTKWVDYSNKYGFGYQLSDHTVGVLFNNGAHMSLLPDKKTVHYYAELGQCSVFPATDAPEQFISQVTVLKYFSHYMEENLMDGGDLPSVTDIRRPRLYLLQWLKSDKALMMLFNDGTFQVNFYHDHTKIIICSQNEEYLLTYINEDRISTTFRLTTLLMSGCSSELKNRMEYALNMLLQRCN

Target: S-phase kinase-associated protein 1 (UniProt P63208)
Assay: co-IP; cell lysates precleared with protein A/G magnetic beads, immunoprecipitated with the primary antibody Flag at 4°C overnight, protein A/G magnetic beads, Western blot

binding: binds
Substance: polo-like kinase 2 (from UniProt Q9NYY3 1-685)
